# Results are given in words; binding and its absence hold for the method and conditions named. In cells and extracts the contact can be indirect. Some binding calls cover weakened binding; strength is not graded here.
# Protein sequences, listed by entry. Tags and fused reporters are not part of them.
# UniProt S8G6L4: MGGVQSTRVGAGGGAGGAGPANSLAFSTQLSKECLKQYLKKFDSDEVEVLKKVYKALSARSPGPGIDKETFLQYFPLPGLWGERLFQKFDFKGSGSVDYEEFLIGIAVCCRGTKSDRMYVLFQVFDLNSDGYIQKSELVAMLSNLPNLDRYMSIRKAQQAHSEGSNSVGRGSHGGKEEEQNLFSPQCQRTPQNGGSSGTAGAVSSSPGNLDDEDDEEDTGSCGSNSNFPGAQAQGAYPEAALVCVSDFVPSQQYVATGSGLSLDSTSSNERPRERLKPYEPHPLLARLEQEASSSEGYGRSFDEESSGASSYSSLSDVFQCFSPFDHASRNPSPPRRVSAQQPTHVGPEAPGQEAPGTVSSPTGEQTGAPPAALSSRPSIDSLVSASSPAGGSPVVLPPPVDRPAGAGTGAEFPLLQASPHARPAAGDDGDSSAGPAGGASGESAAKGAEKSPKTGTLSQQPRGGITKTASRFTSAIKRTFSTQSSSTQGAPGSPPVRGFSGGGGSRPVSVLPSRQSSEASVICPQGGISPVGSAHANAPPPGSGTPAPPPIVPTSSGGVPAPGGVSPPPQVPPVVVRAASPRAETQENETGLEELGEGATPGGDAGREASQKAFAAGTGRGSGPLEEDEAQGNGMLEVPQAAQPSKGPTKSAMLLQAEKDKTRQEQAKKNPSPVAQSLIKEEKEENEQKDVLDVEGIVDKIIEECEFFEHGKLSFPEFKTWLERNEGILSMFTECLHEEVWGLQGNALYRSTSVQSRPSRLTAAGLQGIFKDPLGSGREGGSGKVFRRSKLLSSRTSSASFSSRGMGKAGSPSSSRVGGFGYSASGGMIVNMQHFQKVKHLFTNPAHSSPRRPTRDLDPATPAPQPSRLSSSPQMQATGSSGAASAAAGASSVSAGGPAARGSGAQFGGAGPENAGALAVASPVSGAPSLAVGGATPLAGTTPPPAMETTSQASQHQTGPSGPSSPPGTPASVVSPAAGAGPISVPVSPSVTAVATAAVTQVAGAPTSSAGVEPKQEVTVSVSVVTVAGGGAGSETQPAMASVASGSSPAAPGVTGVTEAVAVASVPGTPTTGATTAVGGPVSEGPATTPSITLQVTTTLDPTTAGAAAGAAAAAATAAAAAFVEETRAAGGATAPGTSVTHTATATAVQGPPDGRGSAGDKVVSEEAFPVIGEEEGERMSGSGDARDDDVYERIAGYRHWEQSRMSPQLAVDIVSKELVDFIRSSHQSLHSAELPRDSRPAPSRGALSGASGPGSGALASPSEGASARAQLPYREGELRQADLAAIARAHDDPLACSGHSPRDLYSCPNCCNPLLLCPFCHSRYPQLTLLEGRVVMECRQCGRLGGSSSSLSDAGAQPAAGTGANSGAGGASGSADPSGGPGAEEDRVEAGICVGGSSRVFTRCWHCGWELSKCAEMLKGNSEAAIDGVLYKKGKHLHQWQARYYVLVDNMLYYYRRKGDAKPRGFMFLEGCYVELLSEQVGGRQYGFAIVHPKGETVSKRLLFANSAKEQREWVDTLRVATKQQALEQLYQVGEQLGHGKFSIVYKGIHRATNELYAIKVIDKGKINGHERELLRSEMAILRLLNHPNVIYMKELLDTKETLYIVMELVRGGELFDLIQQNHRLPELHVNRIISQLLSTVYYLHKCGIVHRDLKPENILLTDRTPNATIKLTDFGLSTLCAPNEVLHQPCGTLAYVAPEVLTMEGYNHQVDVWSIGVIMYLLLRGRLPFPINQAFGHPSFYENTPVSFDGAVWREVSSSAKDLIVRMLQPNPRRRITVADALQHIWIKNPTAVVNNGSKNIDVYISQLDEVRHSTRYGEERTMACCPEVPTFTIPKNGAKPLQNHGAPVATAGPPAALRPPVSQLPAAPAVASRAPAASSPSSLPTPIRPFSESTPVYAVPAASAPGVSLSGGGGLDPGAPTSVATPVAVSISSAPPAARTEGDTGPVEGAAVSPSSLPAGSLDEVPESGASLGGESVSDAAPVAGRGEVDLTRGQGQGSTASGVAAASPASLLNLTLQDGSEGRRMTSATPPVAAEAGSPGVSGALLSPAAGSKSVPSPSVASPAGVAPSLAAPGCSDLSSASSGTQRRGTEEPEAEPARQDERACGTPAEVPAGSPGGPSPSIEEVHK
# UniProt A0A125YY17: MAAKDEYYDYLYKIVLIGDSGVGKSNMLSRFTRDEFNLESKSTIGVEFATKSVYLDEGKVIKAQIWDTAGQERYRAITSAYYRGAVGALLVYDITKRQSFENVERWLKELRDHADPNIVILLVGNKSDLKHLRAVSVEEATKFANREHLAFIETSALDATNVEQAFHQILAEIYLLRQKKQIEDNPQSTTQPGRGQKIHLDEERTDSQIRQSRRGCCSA
# Assays:
# [1] = molecular target: TgCDPK7-HA (Toxoplasma gondii Calcium Dependent Protein Kinase 7, 3xHA at the C-terminus) (Toxoplasma gondii) (UniProt S8G6L4); test: co-IP; T. gondii parasites lysed by ultrasonication in RIPA buffer; lysate with anti-HA antibody 12 h, Protein A/G agarose 6 h at 4°C, washed with RIPA; Western blot with anti-myc; Shield-1 present; ΔKu80 parasites as negative control
# [2] = molecular target: TgGPAT-myc (Toxoplasma gondii Glycerol-3-phosphate acyl transferase with a myc tag after residue 256) (Toxoplasma gondii); test: co-IP; T. gondii parasites lysed by ultrasonication in RIPA buffer; lysate with mouse anti-myc antibody 12 h, Protein A/G agarose 6 h at 4°C, washed with RIPA; Western blot with anti-HA; ΔKu80 parasites as negative control
# [3] = molecular target: DD-Myc-TgRab11a (Toxoplasma gondii); test: as above
Substance,binding [1],binding [2],binding [3]
DD-Myc-TgRab11a (from UniProt A0A125YY17 1-219),binds,,
"TgCDPK7-HA (Toxoplasma gondii Calcium Dependent Protein Kinase 7, 3xHA at the C-terminus) (from UniProt S8G6L4 1-2133) (enzyme)",,binds,binds

# Source: publication PMC7909640
